Results on 3 molecules are retold here after article doi:10.1101/2021.01.27.428455 (bioRxiv, 2021).

Experiment [1] has as its target T1, Lactococcus lactis Csm2 with N-terminal His6-tag (Lactococcus lactis) (UniProt L0CFW2).
T1 sequence: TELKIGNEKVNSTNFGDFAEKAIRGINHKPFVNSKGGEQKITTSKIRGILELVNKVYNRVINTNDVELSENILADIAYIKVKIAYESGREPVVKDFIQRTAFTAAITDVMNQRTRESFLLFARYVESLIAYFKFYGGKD
Nature of the experiment: co-purification.

In experiment [2] the target is T2, Lactococcus lactis Csm3 with N-terminal His6-tag (ΔCsm2-LlCsm) (Lactococcus lactis) (UniProt L0CEA3).
T2 sequence: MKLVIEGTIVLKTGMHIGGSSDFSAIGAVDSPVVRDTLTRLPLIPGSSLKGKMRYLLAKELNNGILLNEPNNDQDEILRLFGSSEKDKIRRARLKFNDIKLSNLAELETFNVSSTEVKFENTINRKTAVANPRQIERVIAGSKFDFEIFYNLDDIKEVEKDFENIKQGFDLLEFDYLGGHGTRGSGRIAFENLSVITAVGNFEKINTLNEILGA
Nature of the experiment: co-purification.

The target of experiment [3] is T1, Lactococcus lactis Csm2 with N-terminal His6-tag (Lactococcus lactis). Nature of the experiment: cryo-EM structure.
The target is the same in experiment [4]. Nature of the experiment: cryo-EM structure. This is another data set of the same source.
Experiment [5] concerns the target Lactococcus lactis Csm1 Asp14Asn (Lactococcus lactis). Nature of the experiment: cryo-EM structure.
The target is the same in experiment [6]. Nature of the experiment: cryo-EM structure. This is another data set of the same source.
For experiment [7] the target is unchanged. Nature of the experiment: cryo-EM structure. The source holds these as a separate data set.

Read-outs that look alike come from different tables or passages of the source. These are yes or no findings as the source states them, for the method shown. Binding calls can cover weak binding; strength is not graded here. For some of these results: Sequences can lack the tags named with a protein. For some of these results: Binding seen in cells or lysates may run through a third protein.

As to “Lactococcus lactis Csm1 (Cas10), wild type”, the binding result in experiment [1] and in experiment [2] was “binds” throughout.

With Lactococcus lactis Csm1 Asp14Asn, the binding entry in experiment [3] and in experiment [4] was “binds” each time.

B1: Lactococcus lactis Csm4 (protein, UniProt L0CFH1)
chain: MKIIKLYFESPVHFGEKRLSESKITFSADTLFSALMIEAVGLGKEDEFYQLASNNLVKFSDAFPFIDQYYYIPKPMFNLKLEKEDENPSKAFKKLLYVPIDSLEDYLSGGLDAYFERESFNLGKLALSEKVQQHDFKDSEPYNVGTFTFKENTGLYVLIEQTHPLLEELLENLQYSGIGGKRNSGYGKFKFEILEDSDIEDLFSAKGNRKILLSGALPKDAELEQALKNASYLLERRGGFVQSDTYATNLVKKQDLYVFKSGSTFENSFDGDIYQVGKKGNHPVYKYAKSFFLEVSV
In the case of B1, the binding result in experiment [5], in experiment [6] and in experiment [7] was “binds” each time.
